Assay results reported in the supplement of paper PMC12823440, “Inhibitors supercharge kinase turnover through native proteolytic circuits” (Nature, 2025).
Counter-ions that a name gives are not always drawn. Some of the results follow. Hit calls seldom repeat between salt and free forms of one compound.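 Kinases were expressed as nanoluciferase fusions in K562 cells and luminescence was read every 4 h between 2 and 18 h as percent of control, DMSO set to 100% and a positive control to 0%. A time point counts as decreased when the signal drops significantly (2 sigma). The hit call is the authors' own, does not follow from the count of time points alone, and its rule is not shown.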

The chains behind the UniProt entries cited, without tags or fusion partners. Where a name states a change or a piece, a line headed by the entry shows the natural chain unless it says otherwise.
UniProt P06241, whole entry, looked up: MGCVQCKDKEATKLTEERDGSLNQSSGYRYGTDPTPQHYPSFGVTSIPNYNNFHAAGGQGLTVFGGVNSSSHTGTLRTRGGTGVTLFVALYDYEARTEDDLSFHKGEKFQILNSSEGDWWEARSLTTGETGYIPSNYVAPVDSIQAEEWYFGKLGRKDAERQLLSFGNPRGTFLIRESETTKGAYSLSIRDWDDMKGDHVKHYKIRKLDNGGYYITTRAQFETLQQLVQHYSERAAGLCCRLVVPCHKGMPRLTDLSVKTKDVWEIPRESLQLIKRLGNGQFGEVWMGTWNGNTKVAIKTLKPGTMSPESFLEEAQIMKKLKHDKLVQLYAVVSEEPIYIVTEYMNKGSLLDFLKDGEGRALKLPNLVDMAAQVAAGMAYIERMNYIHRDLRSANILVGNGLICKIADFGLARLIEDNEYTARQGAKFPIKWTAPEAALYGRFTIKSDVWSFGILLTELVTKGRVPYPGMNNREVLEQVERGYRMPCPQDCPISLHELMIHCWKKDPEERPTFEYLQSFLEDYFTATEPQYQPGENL
UniProt P49840: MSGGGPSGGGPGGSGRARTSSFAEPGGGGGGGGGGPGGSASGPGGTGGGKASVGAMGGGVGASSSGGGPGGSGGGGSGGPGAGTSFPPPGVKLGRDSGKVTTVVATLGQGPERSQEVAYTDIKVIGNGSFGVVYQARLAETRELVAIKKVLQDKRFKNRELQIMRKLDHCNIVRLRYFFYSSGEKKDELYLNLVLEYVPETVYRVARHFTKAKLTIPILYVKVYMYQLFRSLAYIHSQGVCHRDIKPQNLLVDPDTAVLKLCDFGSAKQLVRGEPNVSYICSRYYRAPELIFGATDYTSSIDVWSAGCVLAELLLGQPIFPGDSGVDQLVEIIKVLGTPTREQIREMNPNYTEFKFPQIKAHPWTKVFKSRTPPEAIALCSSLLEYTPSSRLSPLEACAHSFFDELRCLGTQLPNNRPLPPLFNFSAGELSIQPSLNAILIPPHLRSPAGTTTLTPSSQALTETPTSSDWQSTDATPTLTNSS
UniProt P53667: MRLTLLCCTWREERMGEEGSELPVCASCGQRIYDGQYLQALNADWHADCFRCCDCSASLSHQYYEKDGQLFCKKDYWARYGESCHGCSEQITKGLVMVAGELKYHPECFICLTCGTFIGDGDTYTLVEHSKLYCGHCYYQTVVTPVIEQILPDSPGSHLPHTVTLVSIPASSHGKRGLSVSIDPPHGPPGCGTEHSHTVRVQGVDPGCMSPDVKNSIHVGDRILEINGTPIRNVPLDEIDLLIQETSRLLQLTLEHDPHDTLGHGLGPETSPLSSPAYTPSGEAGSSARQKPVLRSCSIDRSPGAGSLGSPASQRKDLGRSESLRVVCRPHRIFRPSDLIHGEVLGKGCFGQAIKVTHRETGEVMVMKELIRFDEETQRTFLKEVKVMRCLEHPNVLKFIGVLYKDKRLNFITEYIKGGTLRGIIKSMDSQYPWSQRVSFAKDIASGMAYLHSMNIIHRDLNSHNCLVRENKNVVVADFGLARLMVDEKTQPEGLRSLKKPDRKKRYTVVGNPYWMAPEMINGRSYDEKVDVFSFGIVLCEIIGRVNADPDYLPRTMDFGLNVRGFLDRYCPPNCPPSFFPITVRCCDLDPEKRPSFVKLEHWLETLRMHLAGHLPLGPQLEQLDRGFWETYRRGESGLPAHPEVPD
UniProt P53671: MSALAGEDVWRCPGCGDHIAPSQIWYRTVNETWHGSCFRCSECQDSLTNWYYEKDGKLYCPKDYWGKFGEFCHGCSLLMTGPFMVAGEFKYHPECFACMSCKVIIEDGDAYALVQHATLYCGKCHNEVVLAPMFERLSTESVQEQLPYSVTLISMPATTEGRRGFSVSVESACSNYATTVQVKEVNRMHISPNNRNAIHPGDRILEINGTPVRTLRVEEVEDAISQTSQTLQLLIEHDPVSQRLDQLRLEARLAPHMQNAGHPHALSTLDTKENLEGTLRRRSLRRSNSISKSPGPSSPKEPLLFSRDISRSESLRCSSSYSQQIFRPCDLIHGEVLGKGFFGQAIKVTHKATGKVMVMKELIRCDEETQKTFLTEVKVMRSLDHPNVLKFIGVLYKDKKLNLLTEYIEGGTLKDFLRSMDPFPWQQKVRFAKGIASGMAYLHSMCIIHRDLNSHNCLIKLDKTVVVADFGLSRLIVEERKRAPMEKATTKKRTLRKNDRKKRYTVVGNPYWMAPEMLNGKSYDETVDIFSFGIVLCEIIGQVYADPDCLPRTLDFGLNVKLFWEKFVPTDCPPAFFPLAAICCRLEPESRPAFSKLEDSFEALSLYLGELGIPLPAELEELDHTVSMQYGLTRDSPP
UniProt Q8IWU2: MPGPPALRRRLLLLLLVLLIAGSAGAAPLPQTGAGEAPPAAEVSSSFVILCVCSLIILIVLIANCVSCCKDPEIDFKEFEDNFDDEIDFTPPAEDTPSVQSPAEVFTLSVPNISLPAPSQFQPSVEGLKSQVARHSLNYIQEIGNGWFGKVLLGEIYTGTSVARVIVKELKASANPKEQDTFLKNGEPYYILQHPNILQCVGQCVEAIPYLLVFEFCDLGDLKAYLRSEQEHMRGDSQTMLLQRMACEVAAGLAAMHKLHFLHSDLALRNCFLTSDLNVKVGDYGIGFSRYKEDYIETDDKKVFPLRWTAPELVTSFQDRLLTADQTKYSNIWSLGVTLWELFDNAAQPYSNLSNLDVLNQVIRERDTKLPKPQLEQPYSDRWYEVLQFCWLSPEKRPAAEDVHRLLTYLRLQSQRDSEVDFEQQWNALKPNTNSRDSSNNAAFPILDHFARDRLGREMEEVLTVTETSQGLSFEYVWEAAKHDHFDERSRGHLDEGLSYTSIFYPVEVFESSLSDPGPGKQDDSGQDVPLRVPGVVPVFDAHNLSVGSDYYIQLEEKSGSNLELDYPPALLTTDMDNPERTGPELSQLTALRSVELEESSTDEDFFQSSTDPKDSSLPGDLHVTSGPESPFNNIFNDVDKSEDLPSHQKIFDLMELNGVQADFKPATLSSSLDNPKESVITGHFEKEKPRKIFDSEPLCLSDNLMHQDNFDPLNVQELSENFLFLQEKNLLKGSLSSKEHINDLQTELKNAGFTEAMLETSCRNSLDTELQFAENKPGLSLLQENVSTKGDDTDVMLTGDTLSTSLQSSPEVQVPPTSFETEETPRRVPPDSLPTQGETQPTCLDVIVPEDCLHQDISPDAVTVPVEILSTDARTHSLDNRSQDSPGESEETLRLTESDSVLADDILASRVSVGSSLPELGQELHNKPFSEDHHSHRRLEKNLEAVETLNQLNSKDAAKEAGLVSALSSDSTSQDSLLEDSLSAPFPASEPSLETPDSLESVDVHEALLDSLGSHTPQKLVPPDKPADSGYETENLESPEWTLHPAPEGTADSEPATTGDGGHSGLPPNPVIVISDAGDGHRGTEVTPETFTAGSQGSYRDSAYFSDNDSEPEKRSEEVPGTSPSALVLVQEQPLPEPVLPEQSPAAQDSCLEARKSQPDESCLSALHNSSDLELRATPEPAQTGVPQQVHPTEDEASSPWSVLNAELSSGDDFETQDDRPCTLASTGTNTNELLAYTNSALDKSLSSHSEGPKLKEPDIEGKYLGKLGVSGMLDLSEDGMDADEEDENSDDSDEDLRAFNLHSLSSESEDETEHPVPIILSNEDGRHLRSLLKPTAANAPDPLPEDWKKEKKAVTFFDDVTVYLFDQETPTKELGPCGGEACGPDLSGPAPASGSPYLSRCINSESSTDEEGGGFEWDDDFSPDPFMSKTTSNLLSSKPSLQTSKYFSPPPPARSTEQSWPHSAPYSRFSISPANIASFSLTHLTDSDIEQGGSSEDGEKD
UniProt P07948: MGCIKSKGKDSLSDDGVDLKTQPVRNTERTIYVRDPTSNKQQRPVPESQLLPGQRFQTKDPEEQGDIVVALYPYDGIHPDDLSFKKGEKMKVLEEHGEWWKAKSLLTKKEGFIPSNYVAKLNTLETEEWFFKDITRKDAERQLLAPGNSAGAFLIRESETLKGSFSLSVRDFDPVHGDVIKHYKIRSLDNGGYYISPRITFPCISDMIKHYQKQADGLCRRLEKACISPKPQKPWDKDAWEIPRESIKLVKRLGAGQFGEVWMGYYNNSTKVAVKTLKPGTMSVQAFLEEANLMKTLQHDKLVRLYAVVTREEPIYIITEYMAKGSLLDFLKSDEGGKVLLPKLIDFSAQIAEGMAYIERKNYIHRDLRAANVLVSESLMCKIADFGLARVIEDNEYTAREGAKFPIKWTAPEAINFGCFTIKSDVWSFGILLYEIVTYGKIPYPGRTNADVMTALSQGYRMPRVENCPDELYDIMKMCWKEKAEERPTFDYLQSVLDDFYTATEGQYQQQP
UniProt P28482, whole entry: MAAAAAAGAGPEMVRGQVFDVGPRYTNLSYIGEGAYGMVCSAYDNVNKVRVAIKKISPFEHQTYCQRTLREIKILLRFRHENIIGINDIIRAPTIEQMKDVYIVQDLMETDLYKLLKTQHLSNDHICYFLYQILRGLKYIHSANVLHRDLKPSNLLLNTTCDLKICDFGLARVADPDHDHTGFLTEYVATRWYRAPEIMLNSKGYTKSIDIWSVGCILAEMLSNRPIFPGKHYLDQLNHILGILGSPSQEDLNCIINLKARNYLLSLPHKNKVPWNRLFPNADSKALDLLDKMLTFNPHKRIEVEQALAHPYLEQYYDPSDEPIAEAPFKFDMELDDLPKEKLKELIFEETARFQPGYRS
UniProt P31152, whole entry: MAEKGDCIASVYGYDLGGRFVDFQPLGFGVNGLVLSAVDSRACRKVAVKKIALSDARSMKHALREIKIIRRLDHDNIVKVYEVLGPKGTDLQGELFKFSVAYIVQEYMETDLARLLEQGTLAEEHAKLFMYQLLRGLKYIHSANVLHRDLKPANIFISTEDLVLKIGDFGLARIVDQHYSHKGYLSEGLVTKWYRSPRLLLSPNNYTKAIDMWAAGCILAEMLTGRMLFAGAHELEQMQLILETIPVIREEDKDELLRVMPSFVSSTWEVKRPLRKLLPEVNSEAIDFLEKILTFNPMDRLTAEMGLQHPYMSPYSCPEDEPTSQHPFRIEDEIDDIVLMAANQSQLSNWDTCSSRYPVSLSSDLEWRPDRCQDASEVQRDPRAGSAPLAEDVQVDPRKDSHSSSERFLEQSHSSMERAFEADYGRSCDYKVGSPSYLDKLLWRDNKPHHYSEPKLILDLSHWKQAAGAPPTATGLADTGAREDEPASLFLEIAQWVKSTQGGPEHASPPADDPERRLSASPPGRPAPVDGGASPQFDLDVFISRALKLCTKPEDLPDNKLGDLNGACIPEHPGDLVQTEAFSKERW
UniProt P49137, whole entry, looked up: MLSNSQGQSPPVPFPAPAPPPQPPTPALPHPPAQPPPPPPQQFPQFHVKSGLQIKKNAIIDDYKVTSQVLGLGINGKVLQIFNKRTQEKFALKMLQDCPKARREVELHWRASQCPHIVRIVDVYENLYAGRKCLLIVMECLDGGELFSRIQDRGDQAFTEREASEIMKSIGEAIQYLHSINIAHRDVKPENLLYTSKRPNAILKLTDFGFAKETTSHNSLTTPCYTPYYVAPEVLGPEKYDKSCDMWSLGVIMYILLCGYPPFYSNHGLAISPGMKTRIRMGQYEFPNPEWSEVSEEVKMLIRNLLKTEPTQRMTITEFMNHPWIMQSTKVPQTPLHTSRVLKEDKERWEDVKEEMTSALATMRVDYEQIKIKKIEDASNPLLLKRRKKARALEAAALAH
UniProt Q9BUB5: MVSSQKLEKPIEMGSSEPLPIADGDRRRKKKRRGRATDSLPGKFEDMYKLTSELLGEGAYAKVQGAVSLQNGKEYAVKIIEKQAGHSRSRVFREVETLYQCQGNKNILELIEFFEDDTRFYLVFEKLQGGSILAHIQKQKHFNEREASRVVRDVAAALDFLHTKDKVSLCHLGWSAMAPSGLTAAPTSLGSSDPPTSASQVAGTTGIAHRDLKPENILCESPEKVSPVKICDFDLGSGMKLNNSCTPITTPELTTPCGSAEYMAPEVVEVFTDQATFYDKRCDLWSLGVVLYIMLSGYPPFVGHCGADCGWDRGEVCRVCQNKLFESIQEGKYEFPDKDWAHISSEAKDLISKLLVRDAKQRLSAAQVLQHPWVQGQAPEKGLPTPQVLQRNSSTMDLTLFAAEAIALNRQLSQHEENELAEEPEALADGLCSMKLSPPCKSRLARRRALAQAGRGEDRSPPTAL

What was measured:
Test in all cases: number of time points (of 5) at which kinase-Nluc abundance scored as decreased, DMSO-normalised (count); higher = more persistent destabilization
Conditions in all cases: K562; 2-18 h
FLT3 = FLT3 (UniProt P36888)
FYN = FYN (UniProt P06241)
GSK3A = GSK3A (UniProt P49840)
HER2 = HER2 (UniProt P04626)
INSRR = INSRR (UniProt P14616)
IRAK3 = IRAK3 (UniProt Q9Y616)
JAK1 = JAK1 (UniProt P23458)
LCK = LCK (UniProt P06239)
LIMK1 = LIMK1 (UniProt P53667)
LIMK2 = LIMK2 (UniProt P53671)
LMTK2 = LMTK2 (UniProt Q8IWU2)
LYN = LYN (UniProt P07948)
MAP2K1 = MAP2K1 (UniProt Q02750)
MAP2K2 = MAP2K2 (UniProt P36507)
MAP4K2 = MAP4K2 (UniProt Q12851)
MAPK1 = MAPK1 (UniProt P28482)
MAPK4 = MAPK4 (UniProt P31152)
MAPKAPK2 = MAPKAPK2 (UniProt P49137)
MKNK1 = MKNK1 (UniProt Q9BUB5)
NTRK2 = NTRK2 (UniProt Q16620)

Measured: number of time points

O=C(O)c1c[nH]c2cc(Cl)c(-c3ccc(C4(O)CCC4)cc3)cc12 (10 µM)
0: all assays above

COc1ccc(Cl)cc1N(CC(=O)Nc1ccc2c(c1)OCO2)S(=O)(=O)c1ccccc1 (2.5 µM)
0: all assays above

C[C@@H]1CN(Cc2ccc(F)cc2)[C@@H](C)CN1C(=O)c1cc2c(C(=O)C(=O)N(C)C)cn(C)c2cc1Cl [Talmapimod] (10 µM)
0: all assays above

CCCCC(=O)OCC(=O)[C@]1(O)Cc2c(O)c3c(c(O)c2[C@@H](O[C@H]2C[C@H](NC(=O)C(F)(F)F)[C@H](O)[C@H](C)O2)C1)C(=O)c1c(OC)cccc1C3=O [Valrubicin] (10 µM)
1: INSRR
0: all other assays above

Fc1ccc(Cl)cc1-c1nc(Nc2ccncc2)c2nccnc2n1 (10 µM)
0: all assays above

CNCCOc1ccccc1C1(Nc2nccn(-c3cc(C(=O)NC4CC4)cc(F)c3C)c2=O)CC1 (10 µM)
0: all assays above

COc1ccc2nc3ccc(OC)cc3c(SCCCN)c2c1 (10 µM)
3: FYN | LIMK1 | MAPKAPK2 | MKNK1
4: LMTK2
0: all other assays above

Cn1cc(-c2nc(N[C@@H]3CCCC[C@@H]3N)c(F)c3c2C(=O)NC3)cn1 [TAK-659 (hydrochloride)] (2 µM)
0: all assays above

CS(=O)(=O)c1ccc([C@@H](CC2CCCC2)C(=O)Nc2nccs2)cc1 (10 µM)
0: all assays above

NC(=O)c1cnc(N[C@@H]2CCCC[C@@H]2N)nc1Nc1cccc(-n2nccn2)c1 (2.5 µM)
1: IRAK3
0: all other assays above

O=c1cc(-c2ccc(O[C@@H]3O[C@H](CO)[C@@H](O)[C@H](O)[C@H]3O)cc2)oc2cc(O)c([C@@H]3O[C@H](CO)[C@@H](O)[C@H](O)[C@H]3O[C@@H]3OC[C@H](O)[C@H](O)[C@H]3O)c(O)c12 [Vaccarin] (10 µM)
0: all assays above

CS(=O)(=O)c1cccc(CNc2nc(Nc3ccc4c(c3)CCC(=O)N4)ncc2C(F)(F)F)c1 (10 µM)
0: all assays above

N=C(NC(=N)N1CCCC1)Nc1ccc(OC(F)(F)F)cc1 (10 µM)
0: all assays above

O=C1CCC(N2C(=O)c3cccc(OCCCCCOc4ccc(CC(=O)Nc5cc(C6CCC6)[nH]n5)cc4)c3C2=O)C(=O)N1 (stereo not given) [PROTAC CDK9 Degrader-1] (10 µM)
3: FLT3 | LMTK2
2: IRAK3
0: all other assays above

Some of these compounds in order of molecular weight, rising:
NC(=O)c1cnc(N[C@@H]2CCCC[C@@H]2N)nc1Nc1cccc(-n2nccn2)c1 (2.5 µM)
1: IRAK3
0: all other assays above

CS(=O)(=O)c1cccc(CNc2nc(Nc3ccc4c(c3)CCC(=O)N4)ncc2C(F)(F)F)c1 (10 µM)
0: all assays above

O=c1cc(-c2ccc(O[C@@H]3O[C@H](CO)[C@@H](O)[C@H](O)[C@H]3O)cc2)oc2cc(O)c([C@@H]3O[C@H](CO)[C@@H](O)[C@H](O)[C@H]3O[C@@H]3OC[C@H](O)[C@H](O)[C@H]3O)c(O)c12 [Vaccarin] (10 µM)
0: all assays above

More compounds

COc1ccc(CN2CCC(c3ccc4nc(C(=O)N5CCN(Cc6ccc(C(F)(F)F)cc6)CC5)[nH]c4c3)CC2)cn1 (2.5 µM)
3: LMTK2
2: IRAK3
1: FYN | MKNK1
0: all other assays above

O=C1Cc2ccccc2N1 [Oxindole] (10 µM)
0: all assays above

O=S(=O)(c1ccc(O)cc1O)N1Cc2cc(O)cc(O)c2C1 (10 µM)
1: LCK
0: all other assays above

COc1cc2nccc(Nc3cccc(Oc4ccccc4)c3)c2cc1OC (2.5 µM)
0: all assays above

C[C@@H](NC(=O)c1ncnc(N)c1Cl)c1ncc(C(=O)Nc2cc(C(F)(F)F)c(Cl)cn2)s1 (2.5 µM)
3: FLT3 | INSRR | LIMK1
2: FYN | IRAK3 | MKNK1
1: HER2 | LIMK2 | MAPKAPK2 | NTRK2
4: JAK1
0: all other assays above

CCc1cc(Nc2nccc(-c3c(-c4ccc(OC)c(C(=O)Nc5c(F)cccc5F)c4)nc4ccccn34)n2)c(OC)cc1N1CCC(N2CCN(S(C)(=O)=O)CC2)CC1 (2.5 µM)
4: LIMK2
0: all other assays above

CS[C@@]1(C(=O)Nc2ccc3[nH]nc(-c4ccc(OC(C)C)nc4)c3c2)CCN(CC(=O)N2CC=C(c3ccc(-c4ncn(C)n4)cc3)CC2)C1 (2.5 µM)
0: all assays above

CCOC(=O)c1c(C)[nH]c(C=C2C(=O)Nc3ccccc32)c1C (10 µM)
0: all assays above

CC1(C)CN(C(=O)c2ccc(-c3cccc4nc(NC(=O)C5CC5)nn34)cc2)C1 [Solcitinib] (10 µM)
0: all assays above
